For three molecules, binding results are on record in patent publication US20250019454A1.

The labels stand for the following.
B1: BC-1F4-IgG1 (antibody, V domains shown)
VH: QVQLQQSGPGLVKPSQTLSLTCAISGDSVSSDSSAWNWIRQSPSRGLEWLGRTYYRSKWYNDYTVSVKSRITINPDTSKNQFSLQLNSVTPEDTAVYYCAREDGVGGTKDYFDYWGQGTLVTVSS
VL: DIQMTQSPSSLSASVGDRVTITCQASQDISNYLNWYQQKPGKAPKLLIYDASNLETGVPSRFSGSGSGTDFTFTINSLQPEDFATYFCQQYDNLPITFGQGTRLEIK
B2: BC-1B6-IgG1 (antibody, V domains shown)
VH: QVQLVESGGGVVQPGRSLRLSCAASGFTFSNFGMHWVRQAPGKGLEWVAVIWYEGSDKYYADSVKGRFTISRDNSKNTLYLQMNSLRAEDTAVYYCARDSSWGFLLYGMDVWGQGTTVTVSS
VL: DVVMTQSPLSLPVTLGQPASISCRSSRSLEYSDGNTYLNWFQQRPGQSPRRLIYKVSNRDSGVPDRFSGSGSGTAFTLKISGVEAEDVGVYYCMQGTHWPPTFGGGTKVEIK
B3: BC-1C3-IgG1 (antibody, V domains shown)
VH: QVQLVESGGGVVHPGKSLRLSCAASGFTFNIYGMHWVRQAPGKGLEWVALISYDGNDKYFADSVKGRFTISRDNSKNTLYLQMNSLRAEDTAVYYCAKAVDTAVVTFFDYWGQGTLVTVSS
VL: EIVMTQSPVTLSVSPGERATLSCRASQSVSSNLAWYQQKPGQAPRLLIYSASTRATGIPARFSGSGSGTEFTLTISSLQSEDLAVYYCQQYSNWPFTFGPGTKVDIK

No constants are given. Whether binding was seen depends on the method and setting. Binding calls can cover weak binding; strength is not graded here.

In the test the target is His-tagged monkey (Crab-eating monkey) TNFR2 (Sino Biological, Cat #: 90102-C08H) (monkey (Crab-eating monkey)). Nature of the test: SPR Biacore 8K.
For the molecule B1, the binding result was “binds”.
Take B2: the binding result is “binds”.
For the molecule B3, the binding entry is reported as “binds”.
